Results from one PubChem assay

From PubChem BioAssay record AID504749 (NCATS, 2011).

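A panel of P. falciparum strains inside erythrocytes is exposed to compounds for three days, then a DNA-binding dye reports the amount of parasite DNA.
Each compound was titrated across a series from about 0.000037 to 29 µM.
The number is the fitted AC50, the concentration giving a half-maximal change in signal; a lower value means higher potency, whether the curve shows a decrease or an increase.
Calls follow the curve class and fit quality: every row here is inconclusive, covering signal-raising curves and weak, poorly fitted, partial or highest-dose-only inhibition curves.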

Values are in nM.
All entries here are filed as inconclusive.
These entries are mostly ones the record files as inconclusive; other results of the assay are not listed here.
A potency from a partial, single-point or poor curve is only a rough figure.

compound | condition | Potency (nM) | curve as filed
CC(C)C1=CC2=CC[C@@H]3[C@](C)(CCC[C@@]3(C)C(=O)O)[C@H]2CC1 | CP329 | 16944 | inhibitor, partial curve, poor fit
CC(C)C1=CC2=CC[C@@H]3[C@](C)(CCC[C@@]3(C)C(=O)O)[C@H]2CC1 | 7G8 | 17782 | inhibitor, single point
CC(C)C1=CC2=CC[C@@H]3[C@](C)(CCC[C@@]3(C)C(=O)O)[C@H]2CC1 | CP203 | 19011 | inhibitor, single point
CC(C)C1=CC2=CC[C@@H]3[C@](C)(CCC[C@@]3(C)C(=O)O)[C@H]2CC1 | CP192 | 13459 | inhibitor, partial curve, poor fit
CC(C)C1=CC2=CC[C@@H]3[C@](C)(CCC[C@@]3(C)C(=O)O)[C@H]2CC1 | GB4 | 19011 | inhibitor, single point
CC(C)C1=CC2=CC[C@@H]3[C@](C)(CCC[C@@]3(C)C(=O)O)[C@H]2CC1 | DIV17 | 19011 | inhibitor, single point
CC(C)C1=CC2=CC[C@@H]3[C@](C)(CCC[C@@]3(C)C(=O)O)[C@H]2CC1 | CP305 | 19011 | inhibitor, single point
CC(C)C1=CC2=CC[C@@H]3[C@](C)(CCC[C@@]3(C)C(=O)O)[C@H]2CC1 | CP266 | 8492 | inhibitor, single point
CC(C)C1=CC2=CC[C@@H]3[C@](C)(CCC[C@@]3(C)C(=O)O)[C@H]2CC1 | CP194 | 15101 | inhibitor, single point
CC(C)C1=CC2=CC[C@@H]3[C@](C)(CCC[C@@]3(C)C(=O)O)[C@H]2CC1 | CP315 | 19011 | inhibitor, single point
CC(C)C1=CC2=CC[C@@H]3[C@](C)(CCC[C@@]3(C)C(=O)O)[C@H]2CC1 | CP297 | 19011 | inhibitor, single point
CC(C)C1=CC2=CC[C@@H]3[C@](C)(CCC[C@@]3(C)C(=O)O)[C@H]2CC1 | PC26 | 19011 | inhibitor, single point
CC(C)C1=CC2=CC[C@@H]3[C@](C)(CCC[C@@]3(C)C(=O)O)[C@H]2CC1 | CP215 | 15101 | inhibitor, single point
CC(C)C1=CC2=CC[C@@H]3[C@](C)(CCC[C@@]3(C)C(=O)O)[C@H]2CC1 | DIV14 | 15101 | inhibitor, single point
CCOc1cc(-c2nccc3cc(OC)c(OC)cc23)cc(OCC)c1OCC | CP305 | 11995 | inhibitor, single point
CCOc1cc(-c2nccc3cc(OC)c(OC)cc23)cc(OCC)c1OCC | CP265 | 17782 | inhibitor, single point
CCOc1cc(-c2nccc3cc(OC)c(OC)cc23)cc(OCC)c1OCC | DIV17 | 19011 | inhibitor, single point
CCOc1cc(-c2nccc3cc(OC)c(OC)cc23)cc(OCC)c1OCC | FAB9 | 11220 | inhibitor, single point
CCOc1cc(-c2nccc3cc(OC)c(OC)cc23)cc(OCC)c1OCC | CP252 | 11220 | inhibitor, single point
CCOc1cc(-c2nccc3cc(OC)c(OC)cc23)cc(OCC)c1OCC | P94_40 | 17782 | inhibitor, single point
CCOc1cc(-c2nccc3cc(OC)c(OC)cc23)cc(OCC)c1OCC | DIV14 | 13459 | inhibitor, single point
CCOc1cc(-c2nccc3cc(OC)c(OC)cc23)cc(OCC)c1OCC | GB4 | 19011 | inhibitor, single point
CCOc1cc(-c2nccc3cc(OC)c(OC)cc23)cc(OCC)c1OCC | TAB113 | 19952 | inhibitor, single point
CCOc1cc(-c2nccc3cc(OC)c(OC)cc23)cc(OCC)c1OCC | CP215 | 19011 | inhibitor, single point
CCOc1cc(-c2nccc3cc(OC)c(OC)cc23)cc(OCC)c1OCC | CP335 | 19011 | inhibitor, single point
CCOc1cc(-c2nccc3cc(OC)c(OC)cc23)cc(OCC)c1OCC | ATS189 | 10000 | inhibitor, single point
CCOc1cc(-c2nccc3cc(OC)c(OC)cc23)cc(OCC)c1OCC | AA1029 | 12589 | inhibitor, single point
CCOc1cc(-c2nccc3cc(OC)c(OC)cc23)cc(OCC)c1OCC | TAB165 | 10000 | inhibitor, partial curve, poor fit
CCOc1cc(-c2nccc3cc(OC)c(OC)cc23)cc(OCC)c1OCC | CP268 | 15101 | inhibitor, single point
CCOc1cc(-c2nccc3cc(OC)c(OC)cc23)cc(OCC)c1OCC | DIV30 | 13459 | inhibitor, partial curve, poor fit
CCOc1cc(-c2nccc3cc(OC)c(OC)cc23)cc(OCC)c1OCC | PC49 | 10000 | inhibitor, single point
CCOc1cc(-c2nccc3cc(OC)c(OC)cc23)cc(OCC)c1OCC | HB3 | 10000 | inhibitor, partial curve
CCOc1cc(-c2nccc3cc(OC)c(OC)cc23)cc(OCC)c1OCC | 3D7 | 10000 | inhibitor, single point
CCOc1cc(-c2nccc3cc(OC)c(OC)cc23)cc(OCC)c1OCC | CP237 | 10000 | inhibitor, single point
CCOc1cc(-c2nccc3cc(OC)c(OC)cc23)cc(OCC)c1OCC | PAD | 17782 | inhibitor, single point
CCOc1cc(-c2nccc3cc(OC)c(OC)cc23)cc(OCC)c1OCC | CP217 | 11220 | inhibitor, single point
CCOc1cc(-c2nccc3cc(OC)c(OC)cc23)cc(OCC)c1OCC | CP247 | 11220 | inhibitor, single point
CCOc1cc(-c2nccc3cc(OC)c(OC)cc23)cc(OCC)c1OCC | CP211 | 16944 | inhibitor, single point
CCOc1cc(-c2nccc3cc(OC)c(OC)cc23)cc(OCC)c1OCC | PC26 | 7569 | inhibitor, partial curve, poor fit
CCOc1cc(-c2nccc3cc(OC)c(OC)cc23)cc(OCC)c1OCC | CP192 | 9528 | inhibitor, single point
CCOc1cc(-c2nccc3cc(OC)c(OC)cc23)cc(OCC)c1OCC | CP194 | 15101 | inhibitor, single point
CCOc1cc(-c2nccc3cc(OC)c(OC)cc23)cc(OCC)c1OCC | CP262 | 11995 | inhibitor, single point
CCOc1cc(-c2nccc3cc(OC)c(OC)cc23)cc(OCC)c1OCC | CP269 | 10690 | inhibitor, single point
CCOc1cc(-c2nccc3cc(OC)c(OC)cc23)cc(OCC)c1OCC | CP297 | 13459 | inhibitor, single point
CCOc1cc(-c2nccc3cc(OC)c(OC)cc23)cc(OCC)c1OCC | SC27B | 17782 | inhibitor, single point

Repeated from the top, 3 entries:

| compound | condition | Potency (nM) | curve as filed |
|---|---|---|---|
| `CC(C)C1=CC2=CC[C@@H]3[C@](C)(CCC[C@@]3(C)C(=O)O)[C@H]2CC1` | CP329 | 16944 | inhibitor, partial curve, poor fit |
| `CC(C)C1=CC2=CC[C@@H]3[C@](C)(CCC[C@@]3(C)C(=O)O)[C@H]2CC1` | 7G8 | 17782 | inhibitor, single point |
| `CC(C)C1=CC2=CC[C@@H]3[C@](C)(CCC[C@@]3(C)C(=O)O)[C@H]2CC1` | CP203 | 19011 | inhibitor, single point |